# Measured values taken from the supplement of paper PMC10032668.
# Protein sequences, listed by entry. Tags and fused reporters are not part of them.
# COX4I1, P13073, UniProt P13073, whole entry: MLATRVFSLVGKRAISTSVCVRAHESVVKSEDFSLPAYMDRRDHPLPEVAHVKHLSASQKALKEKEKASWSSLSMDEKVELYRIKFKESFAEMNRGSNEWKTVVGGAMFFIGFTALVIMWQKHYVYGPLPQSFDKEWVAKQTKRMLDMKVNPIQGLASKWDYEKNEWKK
# EIF3K, Q9UBQ5, UniProt Q9UBQ5, whole entry: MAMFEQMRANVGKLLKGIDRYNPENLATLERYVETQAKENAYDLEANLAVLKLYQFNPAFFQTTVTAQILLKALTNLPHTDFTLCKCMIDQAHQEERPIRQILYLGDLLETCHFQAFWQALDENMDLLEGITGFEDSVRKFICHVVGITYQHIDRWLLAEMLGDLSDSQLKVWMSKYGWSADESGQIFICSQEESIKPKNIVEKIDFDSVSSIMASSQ
# MYO1C, O00159, UniProt O00159, whole entry: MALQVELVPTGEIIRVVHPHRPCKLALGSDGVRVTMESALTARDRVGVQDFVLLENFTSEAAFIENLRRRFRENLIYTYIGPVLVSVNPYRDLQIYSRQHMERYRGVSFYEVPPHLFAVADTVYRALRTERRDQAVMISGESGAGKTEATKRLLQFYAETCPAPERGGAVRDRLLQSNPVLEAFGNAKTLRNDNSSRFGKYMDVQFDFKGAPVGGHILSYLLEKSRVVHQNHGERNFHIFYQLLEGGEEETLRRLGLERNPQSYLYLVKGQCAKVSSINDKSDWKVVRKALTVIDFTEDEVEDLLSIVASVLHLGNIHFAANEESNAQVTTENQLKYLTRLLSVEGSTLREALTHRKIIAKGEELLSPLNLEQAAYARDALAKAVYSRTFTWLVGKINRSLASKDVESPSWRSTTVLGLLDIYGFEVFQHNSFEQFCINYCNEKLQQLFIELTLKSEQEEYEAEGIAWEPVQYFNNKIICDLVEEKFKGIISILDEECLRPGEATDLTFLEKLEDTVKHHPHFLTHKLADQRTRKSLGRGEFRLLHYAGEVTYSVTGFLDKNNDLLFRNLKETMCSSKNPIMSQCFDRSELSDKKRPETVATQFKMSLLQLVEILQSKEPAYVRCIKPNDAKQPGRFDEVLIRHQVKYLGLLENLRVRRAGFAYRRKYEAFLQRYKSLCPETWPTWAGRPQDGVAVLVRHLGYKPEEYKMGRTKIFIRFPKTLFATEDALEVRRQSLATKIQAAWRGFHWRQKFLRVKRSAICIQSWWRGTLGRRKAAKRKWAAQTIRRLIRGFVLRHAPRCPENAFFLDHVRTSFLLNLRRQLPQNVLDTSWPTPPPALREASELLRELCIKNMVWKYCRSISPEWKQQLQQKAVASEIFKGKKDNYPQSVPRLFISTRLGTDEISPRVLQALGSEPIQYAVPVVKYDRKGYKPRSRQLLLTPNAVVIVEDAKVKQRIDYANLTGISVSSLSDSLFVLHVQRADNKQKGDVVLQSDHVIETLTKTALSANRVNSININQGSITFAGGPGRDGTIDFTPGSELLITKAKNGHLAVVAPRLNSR
# NDUFS7, O75251, UniProt O75251, whole entry: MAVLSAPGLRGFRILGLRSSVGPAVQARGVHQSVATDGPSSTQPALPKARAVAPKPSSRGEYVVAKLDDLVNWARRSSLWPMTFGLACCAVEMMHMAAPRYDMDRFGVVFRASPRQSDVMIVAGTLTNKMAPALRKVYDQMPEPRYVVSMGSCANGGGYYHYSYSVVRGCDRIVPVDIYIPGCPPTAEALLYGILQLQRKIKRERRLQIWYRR
# TUBGCP2, Q9BSJ2, UniProt Q9BSJ2, whole entry: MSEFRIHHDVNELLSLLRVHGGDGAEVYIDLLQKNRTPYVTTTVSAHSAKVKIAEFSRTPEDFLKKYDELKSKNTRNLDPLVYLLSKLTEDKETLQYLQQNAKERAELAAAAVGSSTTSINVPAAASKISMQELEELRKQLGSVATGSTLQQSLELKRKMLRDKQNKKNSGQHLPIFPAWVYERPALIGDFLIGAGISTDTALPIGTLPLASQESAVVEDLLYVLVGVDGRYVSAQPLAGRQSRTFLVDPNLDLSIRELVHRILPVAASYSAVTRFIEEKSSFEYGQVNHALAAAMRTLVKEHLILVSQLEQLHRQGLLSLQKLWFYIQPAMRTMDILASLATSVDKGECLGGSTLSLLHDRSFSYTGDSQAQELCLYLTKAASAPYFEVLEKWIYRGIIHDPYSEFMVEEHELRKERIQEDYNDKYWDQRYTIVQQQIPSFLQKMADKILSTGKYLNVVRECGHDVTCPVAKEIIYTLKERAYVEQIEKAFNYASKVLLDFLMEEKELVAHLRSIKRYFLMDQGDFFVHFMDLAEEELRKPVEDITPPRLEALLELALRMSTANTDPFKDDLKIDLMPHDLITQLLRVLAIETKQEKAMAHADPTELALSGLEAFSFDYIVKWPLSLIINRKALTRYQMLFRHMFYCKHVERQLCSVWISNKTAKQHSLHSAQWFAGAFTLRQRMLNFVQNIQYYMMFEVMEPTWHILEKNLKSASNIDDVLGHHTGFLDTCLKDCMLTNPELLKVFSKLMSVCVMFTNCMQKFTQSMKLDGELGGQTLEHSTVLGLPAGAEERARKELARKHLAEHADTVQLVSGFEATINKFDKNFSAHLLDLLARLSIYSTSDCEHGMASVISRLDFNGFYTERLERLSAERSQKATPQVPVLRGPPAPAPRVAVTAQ
# ANXA11, P50995, UniProt P50995, whole entry: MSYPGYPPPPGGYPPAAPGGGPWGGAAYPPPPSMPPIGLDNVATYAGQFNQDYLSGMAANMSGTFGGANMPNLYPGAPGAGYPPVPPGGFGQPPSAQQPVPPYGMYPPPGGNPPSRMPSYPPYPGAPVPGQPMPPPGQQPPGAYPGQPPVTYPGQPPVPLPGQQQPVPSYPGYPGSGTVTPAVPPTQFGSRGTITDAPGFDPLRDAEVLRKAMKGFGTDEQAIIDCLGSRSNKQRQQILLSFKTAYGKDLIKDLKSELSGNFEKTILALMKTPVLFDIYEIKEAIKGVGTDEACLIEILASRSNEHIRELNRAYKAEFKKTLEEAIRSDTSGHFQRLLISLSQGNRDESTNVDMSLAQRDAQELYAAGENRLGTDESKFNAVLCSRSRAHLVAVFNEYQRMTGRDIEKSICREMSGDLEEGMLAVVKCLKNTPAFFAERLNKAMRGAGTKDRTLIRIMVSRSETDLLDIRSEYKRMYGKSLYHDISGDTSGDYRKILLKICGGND
# PSMC5, P62195, UniProt P62195, whole entry: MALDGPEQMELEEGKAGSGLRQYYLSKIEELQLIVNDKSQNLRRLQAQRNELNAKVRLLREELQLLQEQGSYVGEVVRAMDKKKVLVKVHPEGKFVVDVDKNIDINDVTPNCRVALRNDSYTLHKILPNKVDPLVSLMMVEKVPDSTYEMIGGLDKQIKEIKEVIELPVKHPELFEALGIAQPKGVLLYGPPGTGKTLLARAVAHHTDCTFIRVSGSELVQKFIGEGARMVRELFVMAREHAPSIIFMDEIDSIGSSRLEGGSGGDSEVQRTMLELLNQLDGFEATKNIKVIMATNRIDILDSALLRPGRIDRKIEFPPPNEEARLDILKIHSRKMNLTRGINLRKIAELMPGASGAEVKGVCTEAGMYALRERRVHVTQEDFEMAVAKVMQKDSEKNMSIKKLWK
# This is one part of the list. The list holds hits alone, and they repeat only in part.
# Columns and labels:
# Experiment in all cases: PRISMA enrichment of interactor (LFQ) in peptide spot vs all other peptide spots (log2 fold change); higher = stronger / more specific binding of the interactor to the peptide
# ADAR, P55265 = molecular target: ADAR, P55265
# Protocol: (§1)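 PRISMA: 15-aa overlapping tiles (offset 8 aa) of 60 microproteins, plus SOS1/GLUT1 control peptides, were spot-synthesized on cellulose membranes in triplicate. Membranes were incubated with benzonase-treated HEK293T lysate, and bound proteins were identified by LC-MS/MS with LFQ. Enrichment is the log2 fold change of each protein in one spot versus all other spots. Only interactors passing the significance cutoff are listed.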
# AP2A1, O95782 = molecular target: AP2A1, O95782
# Protocol: as §1
# ATP5PB, P24539 = molecular target: ATP5PB, P24539
# Protocol: as §1
# BOLA2, Q9H3K6 = molecular target: BOLA2, Q9H3K6
# Protocol: as §1
# BUD23, O43709 = molecular target: BUD23, O43709
# Protocol: as §1
# CLTCL1, P53675 = molecular target: CLTCL1, P53675
# Protocol: as §1
# COX4I1, P13073 = molecular target: COX4I1, P13073
# Protocol: as §1
# CTR9, Q6PD62 = molecular target: CTR9, Q6PD62
# Protocol: as §1
# DTYMK, P23919 = molecular target: DTYMK, P23919
# Protocol: as §1
# EIF2B2, P49770 = molecular target: EIF2B2, P49770
# Protocol: as §1
# EIF3K, Q9UBQ5 = molecular target: EIF3K, Q9UBQ5
# Protocol: as §1
# FAM136A, Q96C01 = molecular target: FAM136A, Q96C01
# Protocol: as §1
# GTF3C4, Q9UKN8 = molecular target: GTF3C4, Q9UKN8
# Protocol: as §1
# HMGN2, P05204 = molecular target: HMGN2, P05204
# Protocol: as §1
# HMMR, O75330 = molecular target: HMMR, O75330
# Protocol: as §1
# HOMER2, Q9NSB8 = molecular target: HOMER2, Q9NSB8
# Protocol: as §1
# LAMTOR5, O43504 = molecular target: LAMTOR5, O43504
# Protocol: as §1
# MAP1B, P46821 = molecular target: MAP1B, P46821
# Protocol: as §1
# MYO1C, O00159 = molecular target: MYO1C, O00159
# Protocol: as §1
# NCOA5, Q9HCD5 = molecular target: NCOA5, Q9HCD5
# Protocol: as §1
# NDUFS7, O75251 = molecular target: NDUFS7, O75251
# Protocol: as §1
# NUP160, Q12769 = molecular target: NUP160, Q12769
# Protocol: as §1
# NUP88, Q99567 = molecular target: NUP88, Q99567
# Protocol: as §1
# OXSR1, O95747 = molecular target: OXSR1, O95747
# Protocol: as §1
# PDLIM1, O00151 = molecular target: PDLIM1, O00151
# Protocol: as §1
# PPIL4, Q8WUA2 = molecular target: PPIL4, Q8WUA2
# Protocol: as §1
# PRRC2B, Q5JSZ5 = molecular target: PRRC2B, Q5JSZ5
# Protocol: as §1
# RBMXL1, Q96E39 = molecular target: RBMXL1, Q96E39
# Protocol: as §1
# SEC31A, O94979 = molecular target: SEC31A, O94979
# Protocol: as §1
# TUBGCP2, Q9BSJ2 = molecular target: TUBGCP2, Q9BSJ2
# Protocol: as §1
# TWNK, Q96RR1 = molecular target: TWNK, Q96RR1
# Protocol: as §1
# ZC3HC1, Q86WB0 = molecular target: ZC3HC1, Q86WB0
# Protocol: as §1
# hCG_2014768 = molecular target: hCG_2014768
# Protocol: as §1
# ANXA11, P50995 = molecular target: ANXA11, P50995
# Protocol: as §1
# C18orf21, Q32NC0 = molecular target: C18orf21, Q32NC0
# Protocol: as §1
# C4BPA, P04003 = molecular target: C4BPA, P04003
# Protocol: as §1
# CHCHD3, Q9NX63 = molecular target: CHCHD3, Q9NX63
# Protocol: as §1
# CMC2, Q9NRP2 = molecular target: CMC2, Q9NRP2
# Protocol: as §1
# ENAH, Q8N8S7 = molecular target: ENAH, Q8N8S7
# Protocol: as §1
# PDCD11, Q14690 = molecular target: PDCD11, Q14690
# Protocol: as §1
# PPP2R2A, P63151 = molecular target: PPP2R2A, P63151
# Protocol: as §1
# PSMC5, P62195 = molecular target: PSMC5, P62195
# Protocol: as §1
# TXNDC12, O95881 = molecular target: TXNDC12, O95881
# Protocol: as §1
# USP7, Q93009 = molecular target: USP7, Q93009
# Protocol: as §1
binder,measurement,setting,value
ISTGLGKQMQSAFQN [RP11-432J24.5_2],PRISMA enrichment of interactor (log2),"ADAR, P55265",5.08
same,PRISMA enrichment of interactor (log2),"AP2A1, O95782",5.27
same,PRISMA enrichment of interactor (log2),"ATP5PB, P24539",4.71
same,PRISMA enrichment of interactor (log2),"BOLA2, Q9H3K6",4.52
same,PRISMA enrichment of interactor (log2),"BUD23, O43709",4.76
same,PRISMA enrichment of interactor (log2),"CLTCL1, P53675",4.33
same,PRISMA enrichment of interactor (log2),"COX4I1, P13073",7.44
same,PRISMA enrichment of interactor (log2),"CTR9, Q6PD62",7.86
same,PRISMA enrichment of interactor (log2),"DTYMK, P23919",4.77
same,PRISMA enrichment of interactor (log2),"EIF2B2, P49770",4.46
same,PRISMA enrichment of interactor (log2),"EIF3K, Q9UBQ5",5.65
same,PRISMA enrichment of interactor (log2),"FAM136A, Q96C01",6.82
same,PRISMA enrichment of interactor (log2),"GTF3C4, Q9UKN8",4.09
same,PRISMA enrichment of interactor (log2),"HMGN2, P05204",4.82
same,PRISMA enrichment of interactor (log2),"HMMR, O75330",4.95
same,PRISMA enrichment of interactor (log2),"HOMER2, Q9NSB8",4.03
same,PRISMA enrichment of interactor (log2),"LAMTOR5, O43504",4.37
same,PRISMA enrichment of interactor (log2),"MAP1B, P46821",6.26
same,PRISMA enrichment of interactor (log2),"MYO1C, O00159",4.24
same,PRISMA enrichment of interactor (log2),"NCOA5, Q9HCD5",4.12
same,PRISMA enrichment of interactor (log2),"NDUFS7, O75251",4.47
same,PRISMA enrichment of interactor (log2),"NUP160, Q12769",4.57
same,PRISMA enrichment of interactor (log2),"NUP88, Q99567",4.98
same,PRISMA enrichment of interactor (log2),"OXSR1, O95747",3.98
same,PRISMA enrichment of interactor (log2),"PDLIM1, O00151",4.11
same,PRISMA enrichment of interactor (log2),"PPIL4, Q8WUA2",6.17
same,PRISMA enrichment of interactor (log2),"PRRC2B, Q5JSZ5",4.94
same,PRISMA enrichment of interactor (log2),"RBMXL1, Q96E39",4.25
same,PRISMA enrichment of interactor (log2),"SEC31A, O94979",7.24
same,PRISMA enrichment of interactor (log2),"TUBGCP2, Q9BSJ2",4.65
same,PRISMA enrichment of interactor (log2),"TWNK, Q96RR1",5.23
same,PRISMA enrichment of interactor (log2),"ZC3HC1, Q86WB0",3.69
same,PRISMA enrichment of interactor (log2),hCG_2014768,5.65
RNGLPCMSFSPGGRS [CTD-2366F13.1],PRISMA enrichment of interactor (log2),"ADAR, P55265",6.31
same,PRISMA enrichment of interactor (log2),"ANXA11, P50995",4.44
same,PRISMA enrichment of interactor (log2),"C18orf21, Q32NC0",3.94
same,PRISMA enrichment of interactor (log2),"C4BPA, P04003",4.25
same,PRISMA enrichment of interactor (log2),"CHCHD3, Q9NX63",5.93
same,PRISMA enrichment of interactor (log2),"CMC2, Q9NRP2",4.96
same,PRISMA enrichment of interactor (log2),"ENAH, Q8N8S7",4.59
same,PRISMA enrichment of interactor (log2),"PDCD11, Q14690",5.8
same,PRISMA enrichment of interactor (log2),"PPP2R2A, P63151",4.23
same,PRISMA enrichment of interactor (log2),"PSMC5, P62195",5.37
same,PRISMA enrichment of interactor (log2),"TXNDC12, O95881",4.08
same,PRISMA enrichment of interactor (log2),"USP7, Q93009",5.65

# A stretch from the list above:
binder,measurement,setting,value
ISTGLGKQMQSAFQN [RP11-432J24.5_2],PRISMA enrichment of interactor (log2),"FAM136A, Q96C01",6.82
same,PRISMA enrichment of interactor (log2),"GTF3C4, Q9UKN8",4.09
same,PRISMA enrichment of interactor (log2),"HMGN2, P05204",4.82
same,PRISMA enrichment of interactor (log2),"HMMR, O75330",4.95
